# Data published in the supplement of paper PMC8728848.
# Some of the results follow.
# B1: RfpC (Mycobacterium tuberculosum), O07747 (protein)
# chain: MHHHHHHSSGRENLYFQGHMASKSAMAAGLVTASMSLSTAVAHAGPSPNWDAVAQCESGGNWAANTGNGKYGGLQFKPATWAAFGGVGNPAAASREQQIAVANRVLAEQGLDAWPTCGAASGLPIALWSKPAQGIKGS
# Tests used:
# Assay in all cases: glycan array binding signal (z-score within array); higher = stronger binding
# Conditions in all cases: glycan notation: IUPAC condensed, linker removed
# GlcNAc3Prop(b1-4)GlcNAc = target: GlcNAc3Prop(b1-4)GlcNAc
# Outline: (§1)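 Glycan array data came from 3228 arrays in the Consortium for Functional Glycomics database, and only arrays with an available protein sequence were kept. Glycan names were put into IUPAC-condensed notation, and columns mapping to the same glycan were averaged. The binding signal is a within-array Z-score, averaged across arrays of one protein sequence run at different concentrations or buffers and across linkers. A negative Z-score can be read as non-binding.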
# Kdn(a2-3)Gal(b1-3)GlcNAc = target: Kdn(a2-3)Gal(b1-3)GlcNAc
# Outline: as §1
# Kdn(a2-3)Gal(b1-4)GlcNAc = target: Kdn(a2-3)Gal(b1-4)GlcNAc
# Outline: as §1
# [1] = target: Man(a1-2)Man(a1-2)Man(a1-3)Man
# Outline: as §1
# [2] = target: Man(a1-2)Man(a1-2)Man(a1-6)[Man(a1-3)]Man
# Outline: as §1
# Man(a1-2)Man(a1-3)Man = target: Man(a1-2)Man(a1-3)Man
# Outline: as §1
# [3] = target: Man(a1-2)Man(a1-3)[Man(a1-2)Man(a1-6)]Man
# Outline: as §1
# [4] = target: Man(a1-2)Man(a1-3)[Man(a1-2)Man(a1-6)]Man(a1-6)[Man(a1-2)Man(a1-2)Man(a1-3)]Man
# Outline: as §1
# [5] = target: Man(a1-2)Man(a1-3)[Man(a1-2)Man(a1-6)]Man(a1-6)[Man(a1-2)Man(a1-2)Man(a1-3)]Man(b1-4)GlcNAc(b1-4)GlcNAc
# Outline: as §1
# [6] = target: Man(a1-2)Man(a1-3)[Man(a1-6)]Man(a1-6)[Man(a1-2)Man(a1-3)]Man(b1-4)GlcNAc(b1-4)GlcNAc
# Outline: as §1
# [7] = target: Man(a1-2)Man(a1-6)[Man(a1-3)]Man(a1-6)[Man(a1-2)Man(a1-2)Man(a1-3)]Man
# Outline: as §1
# [8] = target: Man(a1-2)Man(a1-6)[Man(a1-3)]Man(a1-6)[Man(a1-2)Man(a1-2)Man(a1-3)]Man(b1-4)GlcNAc(b1-4)GlcNAc
# Outline: as §1
# Man(a1-3)[Man(a1-6)]Man = target: Man(a1-3)[Man(a1-6)]Man
# Outline: as §1
# [9] = target: Man(a1-3)[Man(a1-6)]Man(a1-6)[Man(a1-2)Man(a1-3)]Man(b1-4)GlcNAc(b1-4)GlcNAc
# Outline: as §1
# [10] = target: Man(a1-3)[Man(a1-6)]Man(a1-6)[Man(a1-3)]Man
# Outline: as §1
# [11] = target: Man(a1-3)[Man(a1-6)]Man(a1-6)[Man(a1-3)]Man(b1-4)GlcNAc(b1-4)GlcNAc
# Outline: as §1
# [12] = target: Man(a1-3)[Man(a1-6)]Man(b1-4)GlcNAc(b1-4)GlcNAc
# Outline: as §1
# Man(a1-6)Man = target: Man(a1-6)Man
# Outline: as §1
# Man(b1-4)GlcNAc = target: Man(b1-4)GlcNAc
# Outline: as §1
# Neu5Ac(a2-3)Gal = target: Neu5Ac(a2-3)Gal
# Outline: as §1
# [13] = target: Neu5Ac(a2-3)Gal(b1-3)GalNAc
# Outline: as §1
# [14] = target: Neu5Ac(a2-3)Gal(b1-3)GalNAc(b1-3)Gal(a1-4)Gal(b1-4)Glc
# Outline: as §1
# [15] = target: Neu5Ac(a2-3)Gal(b1-3)GalNAc(b1-3)Gal(b1-4)GlcNAc
# Outline: as §1
# [16] = target: Neu5Ac(a2-3)Gal(b1-3)GalNAc(b1-4)[Neu5Ac(a2-3)]Gal(b1-4)Glc
# Outline: as §1
# [17] = target: Neu5Ac(a2-3)Gal(b1-3)GalNAc6S
# Outline: as §1
# [18] = target: Neu5Ac(a2-3)Gal(b1-3)GlcNAc
# Outline: as §1
# [19] = target: Neu5Ac(a2-3)Gal(b1-3)GlcNAc(b1-3)Gal(b1-3)GlcNAc
# Outline: as §1
# [20] = target: Neu5Ac(a2-3)Gal(b1-3)GlcNAc6S
# Outline: as §1
# [21] = target: Neu5Ac(a2-3)Gal(b1-3)[Fuc(a1-4)]GlcNAc
# Outline: as §1
# [22] = target: Neu5Ac(a2-3)Gal(b1-3)[Fuc(a1-4)]GlcNAc(b1-3)Gal(b1-4)[Fuc(a1-3)]GlcNAc
# Outline: as §1
# [23] = target: Neu5Ac(a2-3)Gal(b1-3)[Neu5Ac(a2-3)Gal(b1-4)]GlcNAc
# Outline: as §1
# [24] = target: Neu5Ac(a2-3)Gal(b1-3)[Neu5Ac(a2-6)]GalNAc
# Outline: as §1
# Neu5Ac(a2-3)Gal(b1-4)Glc = target: Neu5Ac(a2-3)Gal(b1-4)Glc
# Outline: as §1
# [25] = target: Neu5Ac(a2-3)Gal(b1-4)GlcNAc
# Outline: as §1
# [26] = target: Neu5Ac(a2-3)Gal(b1-4)GlcNAc(b1-2)Man(a1-3)[GlcNAc(b1-2)Man(b1-4)GlcNAc(b1-2)Man(a1-6)]Man(b1-4)GlcNAc(b1-4)GlcNAc
# Outline: as §1
# [27] = target: Neu5Ac(a2-3)Gal(b1-4)GlcNAc(b1-2)Man(a1-3)[Neu5Ac(a2-6)Gal(b1-4)GlcNAc(b1-2)Man(a1-6)]Man(b1-4)GlcNAc(b1-4)GlcNAc
# Outline: as §1
# [28] = target: Neu5Ac(a2-3)Gal(b1-4)GlcNAc(b1-3)Gal(b1-3)GlcNAc
# Outline: as §1
# [29] = target: Neu5Ac(a2-3)Gal(b1-4)GlcNAc(b1-3)Gal(b1-4)GlcNAc
# Outline: as §1
# [30] = target: Neu5Ac(a2-3)Gal(b1-4)GlcNAc(b1-3)Gal(b1-4)GlcNAc(b1-3)Gal(b1-4)GlcNAc
# Outline: as §1
# [31] = target: Neu5Ac(a2-3)Gal(b1-4)GlcNAc(b1-3)Gal(b1-4)[Fuc(a1-3)]GlcNAc
# Outline: as §1
# [32] = target: Neu5Ac(a2-3)Gal(b1-4)GlcNAc(b1-6)[Gal(b1-3)]GalNAc
# Outline: as §1
# [33] = target: Neu5Ac(a2-3)Gal(b1-4)GlcNAc(b1-6)[Neu5Ac(a2-3)Gal(b1-3)]GalNAc
# Outline: as §1
# [34] = target: Neu5Ac(a2-3)Gal(b1-4)GlcNAc6S
# Outline: as §1
# [35] = target: Neu5Ac(a2-3)Gal(b1-4)[Fuc(a1-3)]GlcNAc
# Outline: as §1
binder,measurement,setting,value
B1,glycan array binding signal (z-score),GlcNAc3Prop(b1-4)GlcNAc,-1.25
same,glycan array binding signal (z-score),Kdn(a2-3)Gal(b1-3)GlcNAc,0.151
same,glycan array binding signal (z-score),Kdn(a2-3)Gal(b1-4)GlcNAc,-0.421
same,glycan array binding signal (z-score),[1],2.92
same,glycan array binding signal (z-score),[2],-1
same,glycan array binding signal (z-score),Man(a1-2)Man(a1-3)Man,0.513
same,glycan array binding signal (z-score),[3],-1.43
same,glycan array binding signal (z-score),[4],0.7
same,glycan array binding signal (z-score),[5],-0.745
same,glycan array binding signal (z-score),[6],-0.308
same,glycan array binding signal (z-score),[7],0.818
same,glycan array binding signal (z-score),[8],-1.59
same,glycan array binding signal (z-score),Man(a1-3)[Man(a1-6)]Man,0.439
same,glycan array binding signal (z-score),[9],0.88
same,glycan array binding signal (z-score),[10],1.04
same,glycan array binding signal (z-score),[11],0.01
same,glycan array binding signal (z-score),[12],0.853
same,glycan array binding signal (z-score),Man(a1-6)Man,-0.622
same,glycan array binding signal (z-score),Man(b1-4)GlcNAc,-0.798
same,glycan array binding signal (z-score),Neu5Ac(a2-3)Gal,0.641
same,glycan array binding signal (z-score),[13],-0.523
same,glycan array binding signal (z-score),[14],-1.26
same,glycan array binding signal (z-score),[15],-1.31
same,glycan array binding signal (z-score),[16],-0.923
same,glycan array binding signal (z-score),[17],0.316
same,glycan array binding signal (z-score),[18],1.27
same,glycan array binding signal (z-score),[19],-0.255
same,glycan array binding signal (z-score),[20],-0.125
same,glycan array binding signal (z-score),[21],-1.26
same,glycan array binding signal (z-score),[22],1.49
same,glycan array binding signal (z-score),[23],-0.688
same,glycan array binding signal (z-score),[24],-0.194
same,glycan array binding signal (z-score),Neu5Ac(a2-3)Gal(b1-4)Glc,0.008
same,glycan array binding signal (z-score),[25],0.366
same,glycan array binding signal (z-score),[26],-0.194
same,glycan array binding signal (z-score),[27],0.203
same,glycan array binding signal (z-score),[28],-1.06
same,glycan array binding signal (z-score),[29],1.29
same,glycan array binding signal (z-score),[30],-0.896
same,glycan array binding signal (z-score),[31],-0.432
same,glycan array binding signal (z-score),[32],-0.262
same,glycan array binding signal (z-score),[33],-0.696
same,glycan array binding signal (z-score),[34],-0.765
same,glycan array binding signal (z-score),[35],-0.251
